This list was built around the results that the source calls inconclusive (neither active nor inactive); the mix of calls is not that of the screen. A potency beside an inconclusive call is a rough fit, not a confirmed value. The source made the active and inactive calls. Rule for the calls: active = hit-call score of the fitted dose curve at least 0.9, where 1 is the maximum; inconclusive = response in the unintended direction; inactive = score below 0.9.
What was measured:
[1] = target: Cellular tumor antigen p53 (Homo sapiens) (UniProt P04637); assay: TOX21_p53_BLA_p3_ratio: Tox21 HCT-116 p53 Agonism Beta-lactamase Assay, Ratio, Phase 3 (AID 2283596)
In short: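 HCT116 p53-bla cells (4000/well) given compound in DMSO (217-fold dilution) after 5 h, incubated 16 h at 37C. CCF4-AM substrate 2 h at room temperature; 460/530 nm emission ratio, gain fitted against DMSO.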

Amino acid sequences for entries named in this document (tags omitted).
UniProt P04637, whole entry, looked up: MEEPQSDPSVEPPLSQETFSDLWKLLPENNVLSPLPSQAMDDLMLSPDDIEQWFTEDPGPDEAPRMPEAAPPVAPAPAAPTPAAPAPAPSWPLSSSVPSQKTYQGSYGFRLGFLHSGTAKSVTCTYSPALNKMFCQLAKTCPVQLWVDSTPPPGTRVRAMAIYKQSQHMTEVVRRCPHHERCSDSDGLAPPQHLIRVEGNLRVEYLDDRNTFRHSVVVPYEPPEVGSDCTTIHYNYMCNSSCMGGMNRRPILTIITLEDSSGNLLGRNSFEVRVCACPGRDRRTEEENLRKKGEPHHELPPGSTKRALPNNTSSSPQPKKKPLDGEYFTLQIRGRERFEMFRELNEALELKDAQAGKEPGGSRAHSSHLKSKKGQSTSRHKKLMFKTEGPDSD

[2] = target: Cellular tumor antigen p53 (Homo sapiens) (UniProt P04637); assay: TOX21_p53_BLA_p5_ratio: Tox21 HCT-116 p53 Agonism Beta-lactamase Assay, Ratio, Phase 5 (AID 2283599)
In short: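 HCT-116 cells carrying a p53-inducible beta-lactamase reporter were seeded at 4000 cells/well and dosed after 5 h with compound in DMSO (217-fold dilution). After 16 h at 37C, CCF4-AM substrate was added for 2 h, and the 460/530 nm emission ratio was scored as gain-of-signal versus DMSO.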

[3] = TOX21_p53_BLA_p5_viability: Viability Assessment in the Tox21 HCT-116 p53 Agonism Beta-lactamase Assay, Phase 5 (AID 2283600)
In short: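 Compounds, pinned from DMSO at 217-fold dilution, were left on the cells for 16 h. The viability endpoint was ATP content measured by CellTiter-Glo luminescence, where falling signal reflects cytotoxicity.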

[4] = target: Cellular tumor antigen p53 (Homo sapiens) (UniProt P04637); assay: TOX21_p53_BLA_p4_ratio: Tox21 HCT-116 p53 Agonism Beta-lactamase Assay, Ratio, Phase 4 (AID 2283601)
In short: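 HCT116 cells carrying an inducible beta-lactamase reporter were plated at 4000 cells/well, rested 5 h, then exposed to compounds in DMSO (217-fold dilution) for 16 h at 37C. CCF4-AM substrate was loaded 2 h at room temperature; 460/530 nm emission ratio scored gain-of-signal versus DMSO.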

[5] = TOX21_p53_BLA_p4_viability: Viability Assessment in the Tox21 HCT-116 p53 Agonism Beta-lactamase Assay, Phase 4 (AID 2283597);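 note: hits lower the luminescence signal meaning cytotoxicity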
In short: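 We seeded HCT116 p53 reporter cells at 4000/well and waited 5 h. We then added compounds in DMSO at a 217-fold dilution and incubated for 16 h. Viability was read as CellTiter-Glo luminescence after 30 min at RT.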

[6] = TOX21_p53_BLA_p3_viability: Viability Assessment in the Tox21 HCT-116 p53 Agonism Beta-lactamase Assay, Phase 3 (AID 2283593);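 note: cells exposed to compound for 16 h before reading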
In short: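 HCT-116 cells (4000/well) rested 5 h at 37C, then got DMSO compounds by pin tool (217-fold dilution) for 16 h at 37C, 5% CO2. After the bla read, CellTiter-Glo was added and luminescence read at 30 min, room temperature.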

[7] = target: Cellular tumor antigen p53 (Homo sapiens) (UniProt P04637); assay: TOX21_p53_BLA_p2_ratio: Tox21 HCT-116 p53 Agonism Beta-lactamase Assay, Ratio, Phase 2 (AID 2283592)
In short: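 In this cell-based reporter format, HCT116 cells were dosed with chemicals delivered from DMSO by 217-fold dilution and incubated 16 h at 37C. Emission at 460 and 530 nm after 2 h CCF4-AM loading provided the ratio, fitted upward versus DMSO.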

[8] = TOX21_PR_BLA_Followup_Antagonist_viability: Viability Assessment in the Tox21 HEK293 Progesterone Receptor (PR) Antagonism Beta-lactamase Follow-Up Assay (AID 2283936);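 note: hits lower the luminescence signal meaning cytotoxicity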
In short: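 PR-UAS-bla HEK293T cells (3,000/well, 2% charcoal-stripped FBS) given compound plus R5020 agonist, 16 h at 37C. CellTiter-Glo added after bla read, 30 min at room temperature; luminescence loss indicates cytotoxicity.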

In the case of `OCC(CBr)(CBr)CBr`, the outcome [1] was “inactive”, the AC50 [2] was inconclusive: 46 µM and the AC50 [3] was inconclusive: 46 µM. The outcome [4] was “inactive”.
In the case of `COC(=O)[C@@H](N)CS`, the AC50 [5] was inconclusive: 23 µM and the outcome [3] was “inactive”.
In the case of `NS(=O)(=O)c1cc2c(cc1Cl)NC(Cc1ccccc1)NS2(=O)=O` (stereo unspecified), the AC50 [6] was inconclusive: 23 µM, the AC50 [5] was inconclusive: 7.86 µM and the AC50 [2] was inconclusive: 23 µM.
In the case of `CCC(COC(=O)CCS)(COC(=O)CCS)COC(=O)CCS`, the AC50 [7] was inconclusive: 86.4 µM, the AC50 [1] was active: 72.1 µM and the AC50 [5] was inconclusive: 0.0715 µM. For the same molecule, the AC50 [2] was inconclusive: 46.1 µM and the AC50 [4] was inconclusive: 46.1 µM.
With `Cn1nnc2c(C(N)=O)ncn2c1=O` the outcome [1] was “inactive”, the AC50 [5] was inconclusive: 23 µM and the outcome [2] was “inactive”.
For `CN1CCN(C2=Nc3ccccc3Oc3ccc(Cl)cc32)CC1`, the AC50 [7] was inconclusive: 10.3 µM, the outcome [1] was “inactive” and the outcome [4] was “inactive”.
In the case of `CC(C)(C)OC=O`, the AC50 [1] was inconclusive: 47.6 µM, the AC50 [5] was inconclusive: 47.6 µM and the outcome [2] was “inactive”.
For `Cc1c(Cn2ccnc2)c2ccccc2n1CCC(=O)O`, the AC50 [6] was inconclusive: 23 µM, the AC50 [1] was inconclusive: 23 µM and the AC50 [5] was inconclusive: 23 µM.
With `CC(=O)OCC(=O)[C@@]1(O)CC[C@H]2[C@@H]3CCC4=CC(=O)C=C[C@]4(C)[C@H]3[C@@H](O)C[C@@]21C` the AC50 [8] was inconclusive: 23 µM.
With `CC(C)(CO)[C@@H](O)C(=O)NCCC(=O)NCCSSCCNC(=O)CCNC(=O)[C@H](O)C(C)(C)CO` the AC50 [6] was inconclusive: 23 µM, the outcome [1] was “inactive” and the AC50 [5] was inconclusive: 23 µM. The outcome [2] was “inactive” and the AC50 [3] was inconclusive: 23 µM.

Source: PubChem BioAssay (EPA / NIEHS)
